According to patent US20230056288A1:
Where a chain is given by its changes, count along the chain named. No constants are given. Whether binding was seen depends on the method and setting. Some binding calls cover weakened binding; strength is not graded here.

Target: T1, IGSF8 extracellular domain (ED) (Homo sapiens (Human)) (UniProt Q969P0)
T1 sequence: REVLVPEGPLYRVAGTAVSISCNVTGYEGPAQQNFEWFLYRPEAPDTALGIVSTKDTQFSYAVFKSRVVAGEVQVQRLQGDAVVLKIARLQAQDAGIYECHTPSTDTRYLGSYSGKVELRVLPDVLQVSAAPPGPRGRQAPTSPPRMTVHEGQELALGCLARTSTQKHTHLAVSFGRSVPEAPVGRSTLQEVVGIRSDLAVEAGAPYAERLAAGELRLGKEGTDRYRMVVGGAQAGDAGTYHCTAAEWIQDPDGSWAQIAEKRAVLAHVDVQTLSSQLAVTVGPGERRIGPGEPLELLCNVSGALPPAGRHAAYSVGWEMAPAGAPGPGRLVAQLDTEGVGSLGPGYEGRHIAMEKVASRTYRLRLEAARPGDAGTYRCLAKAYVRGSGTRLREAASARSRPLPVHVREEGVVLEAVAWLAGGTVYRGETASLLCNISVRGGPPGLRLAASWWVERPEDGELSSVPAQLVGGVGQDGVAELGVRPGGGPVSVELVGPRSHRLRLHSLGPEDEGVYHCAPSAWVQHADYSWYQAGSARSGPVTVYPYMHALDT
Assay: ELISA on IGSF8 extracellular domain

B1: Antibody C1 (antibody, human IgG1, V domains shown)
VH: QVQLLQSGGGLVQPGGSLRLSCAASGFTFSRYRMSWVRQAPGKGLEWVSRISRSGGATAYADSVKGRFTISRDNSKNTLYLQMNSLRAEDTAVYYCARDATGRHYNGMDVWGRGTLVTVSS
VL: EIALTQSPSSLSASVGDRVTITCRASQTITRHLNWFQQKPGKAPNLLIHGTSALQTGVPPRFSGGGSGTDFTLTINSLQPEDFGTYYCQQSHTKPWTFGPGTKVEIKR
With B1 the binding was “binds”.

B2: Antibody C10 (antibody, V domains shown)
VH: EVQLLESGGGLVQPGGSLRLSCAASGFTFSRYRMYWVRQAPGKGLEWVSTISRSGGRTVYADSVKGRFTISRDNSKNTLYLQMNSLRAEDTAVYYCARDATGRHYNGMDVWGQGTLVTV
VL: ETTLTQSPATLSVSPGERATLSCRASQSVSSNVAWYQQKPGQAPRLLMFGSGTRATGIPARFSGSGSGTEFTLTISSLQSEDFAAYYCQQYNDWPSFGQGTRVEIKG
In the case of B2, the binding is reported as “binds”.

B3: Antibody C11 (antibody, V domains shown)
VH: EVQLVESGGGLVQPGGSLRLSCAASGFTFSRYRMYWVRQAPGKGLEWVSSISSSGGRTKYADSVKGRFTISRDNSKNTLYLQMNSLRAEDTAVYYCARGVRYCSSPSCSRGPRYAMDVWGKGTTVTVSS
VL: DIQMTQSPSSLSASVGDRVTITCRASYVIRNDLSWYQQKPGKAPKLLIYGTSSLHNGVPSRFSGSGYGTYFTLTISSLQPEDFGTYYCLQDDKYPLTFGGGTKVEIKR
B3 was tested, and the binding was “binds”.

B4: Antibody C12 (antibody, V domains shown)
VH: EVQLVESGGGLVQPGGSLRLSCAASGFTFSKYKMSWVRQAPGKGLEWVSTIAPSGGGTRYADSVKGRFTISRDNSKNTLYLQMNSLRAEDTAVYYCARGGHFSNPWGQGTLVTVSS
VL: DVVMTQSPLSLPVTLGQPASISCRSSQSLVHTDGDTYLNWYQQRPGQSPRRLIYKVSKRDSGVPDRFSGSGSGTDFTLKISRVEAEDVGVYYCMQGIKRPYTLGQGTKLEIKR
With B4 the binding was “binds”.

B5: Antibody C2 (antibody, V domains shown)
VH: B1 VH with Q1E, R31S, R33P, S35N, A57R, A59S, G102R, R113K, L116T
VL: DVVMTQSPATLSLSPGERASLSCRASRSVGKYLAWYQQKPGQAPRLLFYYASLRAGDIPSRFTASGSGTDFTLTISRLEPEDFAVYYCQQYGSSPRTFGQGTKLEMKR
With B5 the binding was “binds”.

B6: Antibody C3 (antibody, V domains shown)
VH: QVQLVESGGGLVQPGGSLRLSCAASGFTFSHYPMRWVRQAPGKGLEWVSSIRRSGGRTKYADSVKGRFTISRDNSKNTLYLQMNSLRAEDTAVYYCARDATGRHYNGMDVWGKGTTVTVSS
VL: DVVMTQSPSSLSASVGDRVTITCRTSQVIGTSLNWYQQKPGRAPRLLIYSASNLQSGVPSRFSGSGHGTQFTLTISSLQPEDFATYSCQQSSRVPHTFGQGTKLEMRR
B6 was tested, and the binding was “binds”.

B7: Antibody C5 (antibody, V domains shown)
VH: EVQLVQSGGGLVQPGGSLRLSCAASGFTFSRYRMAWVRQAPGKGLEWVSNITRSGGVTRYADSVKGRFTISRDNSKNTLYLQMNSLRAEDTAVYYCARDPNRVTAISSHYGMDVWGKGTTVTVSS
VL: EIVLTQSPSTLSASVGDRVTISCRASQSISRWLAWYQQKPGQAPRLLIYDASNRATGVPARFSVSGSETDSTLTISSLEPEDFAMYYCQQRSNWPPMYTFGQGTKLEIKR
For B7, the binding was “binds”.

B8: Antibody C6 (antibody, V domains shown)
VH: B6 VH with Q1E, H31P, P33R, R35H, S50R, R52N, R53P, K59W, K113Q, T116M
VL: DIQMTQSPSTLSASVGDRVTITCRASQSINKWLAWYQQKPGKAPKLLIYKASTLESGVPSRFSGSGSGTDFTLTINSLQPEDFATYYCQQSHSAPWTFGQGTKVEIER
For B8, the binding was “binds”.

B9: Antibody C7 (antibody, V domains shown)
VH: B6 VH with Q1E, V5E, H31S, R35N, S50R, R52S, K59S, G102R
VL: B5 VL with D1E, V2T, V3T, M4L
For B9, the binding was “binds”.

B10: Antibody C9 (antibody, V domains shown)
VH: B3 VH with R33D, Y35S, S50R, S52R, S53Y, K59G
VL: DVVMTQSPATLSLSPGEGATLSCRASQSVRGYLAWYQQKPGQAPRLLIYDTFKRATGIPARFSGSGSGADFTLTISSLEPEDSAVYYCQQYFASPWTFGQGTKVEIKR
B10 was tested, and the binding was “binds”.
